The values below come from paper PMC3288065.

These are yes or no findings as the source states them, for the method shown. Binding can be weak; no strength is given. For part of these data: Where a sequence is shown, tags or fusion partners need not be part of it. For part of these data: Binding seen in cells or lysates may run through a third protein.

The target in assay [1] is T1, ProLabel-TRX (porcine) (UniProt P82460).
T1 sequence: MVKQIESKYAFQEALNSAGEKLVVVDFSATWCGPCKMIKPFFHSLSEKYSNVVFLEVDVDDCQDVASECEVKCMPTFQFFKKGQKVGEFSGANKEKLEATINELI
Description: co-IP; transfected HEK293 lysate with anti-TRX polyclonal antibodies and protein G plus/A agarose beads; western blot with anti-GFP monoclonal antibodies for GFP-SzP.

Assay [2] addresses GFP-SzP fusion protein (Streptococcus equi ssp. zooepidemicus ATCC35246). Description: co-IP; HEK293 co-transfected with pAcGFP1-SzP (or pAcGFP1-C) and pProLabel fusions (or pProLabel-C); lysate with anti-GFP monoclonal antibody and protein G plus/A agarose beads at 4°C; ProLabel chemiluminescence read on the beads.
Assay [3] has as its target SzP anchored on the surface of viable S. zooepidemicus wild strain ATCC35246 (Streptococcus equi ssp. zooepidemicus ATCC35246). Description: flow cytometry on cells; 5x10^7 CFU/mL viable S. zooepidemicus wild strain or SzP-knockout strain in 2 mg/mL TRX, 30 min, 37°C; rabbit anti-TRX polyclonal antibodies and FITC goat anti-rabbit IgG; only the binder purified.

On to GFP-SzP fusion protein, for which the binding result in assay [1] was “binds”.

B1: ProLabel-Guanine nucleotide binding protein (G protein), gamma 11 (protein, UniProt A0A8W4FGM1 1-73)
chain: MPALHIEDLPEKEKLKMEVEQLRKEVKLQRQQVSKCSEEIKNYIEERSGEDPLVKGIPEDKNPFKEKGSCIIS
Turning to B1, in assay [2], the binding result is on record as “no binding”.

B2: ProLabel-TRX (protein, UniProt P82460 1-105)
chain: MVKQIESKYAFQEALNSAGEKLVVVDFSATWCGPCKMIKPFFHSLSEKYSNVVFLEVDVDDCQDVASECEVKCMPTFQFFKKGQKVGEFSGANKEKLEATINELI
For B2, in assay [2], the binding result is reported as “binds”.

B3: His-TRX (reduced form in the DTT-treated samples) (protein, UniProt P82460 1-105)
chain: MVKQIESKYAFQEALNSAGEKLVVVDFSATWCGPCKMIKPFFHSLSEKYSNVVFLEVDVDDCQDVASECEVKCMPTFQFFKKGQKVGEFSGANKEKLEATINELI
With B3, the binding entry in assay [3] is listed as “binds”.

B4: ProLabel-Transmembrane protein CD9 (protein, UniProt Q8WMQ3 1-226)
chain: MPVKGGTKCIKYLLFGFNFIFWLAGIAVLAIGLWLRFDSQTKSIFEQENNNSSFYTGVYILIGAGALMMVVGFLGCCGAVQESQCMLGLFFGFLLVIFAIEIAAAIWGYSHKDQVIKEVQDFYRDTYNKLKGKDDPQRETLKAIHYALDCCGLMGEVEQLLADICPQRDVLSSLPMKPCPEAIKEVFQNKFHIIGAVGIGIAVVMIFGMIFSMILCCAIRRSREMV
Regarding B4, in assay [2], the binding entry is given as “no binding”.

B5: ProLabel-Selenoprotein K (protein, UniProt Q2EN82 1-94)
chain: MVYISNGQALDSRSQSPWRLSFITDFFWGIAEFVVLFFRTLLQQDVKKRRGYGGSSDSRYDDGRGPPGNPPRRMGRINHLRGPNPPPMAGGUGR
On to B5, for which, in assay [2], the binding result is recorded as “no binding”.
